For 28 targets, log2 fold change results are on record in the supplement of paper PMC10849652.

Chains of the proteins cited; added tags and fusions are not shown. Lines headed by an entry give the natural chain unless they say otherwise; changes in a name come on top.
UniProt Q96AC1: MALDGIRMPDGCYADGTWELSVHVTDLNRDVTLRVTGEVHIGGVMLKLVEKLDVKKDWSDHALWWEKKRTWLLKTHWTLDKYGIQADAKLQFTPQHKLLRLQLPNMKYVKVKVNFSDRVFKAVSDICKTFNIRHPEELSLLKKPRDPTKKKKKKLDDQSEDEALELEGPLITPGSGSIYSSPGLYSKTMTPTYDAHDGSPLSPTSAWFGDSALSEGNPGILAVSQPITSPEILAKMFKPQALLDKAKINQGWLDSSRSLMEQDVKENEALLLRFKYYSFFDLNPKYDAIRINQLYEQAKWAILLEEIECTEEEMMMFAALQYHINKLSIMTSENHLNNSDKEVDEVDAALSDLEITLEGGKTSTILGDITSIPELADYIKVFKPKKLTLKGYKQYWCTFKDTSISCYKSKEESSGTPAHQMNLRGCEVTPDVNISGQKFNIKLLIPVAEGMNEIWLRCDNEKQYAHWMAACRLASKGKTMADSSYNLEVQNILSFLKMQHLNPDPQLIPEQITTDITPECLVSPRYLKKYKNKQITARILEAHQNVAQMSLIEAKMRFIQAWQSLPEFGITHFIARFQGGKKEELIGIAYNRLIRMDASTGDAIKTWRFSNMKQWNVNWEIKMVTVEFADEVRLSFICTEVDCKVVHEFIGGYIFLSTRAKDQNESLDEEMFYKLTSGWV
UniProt O75955: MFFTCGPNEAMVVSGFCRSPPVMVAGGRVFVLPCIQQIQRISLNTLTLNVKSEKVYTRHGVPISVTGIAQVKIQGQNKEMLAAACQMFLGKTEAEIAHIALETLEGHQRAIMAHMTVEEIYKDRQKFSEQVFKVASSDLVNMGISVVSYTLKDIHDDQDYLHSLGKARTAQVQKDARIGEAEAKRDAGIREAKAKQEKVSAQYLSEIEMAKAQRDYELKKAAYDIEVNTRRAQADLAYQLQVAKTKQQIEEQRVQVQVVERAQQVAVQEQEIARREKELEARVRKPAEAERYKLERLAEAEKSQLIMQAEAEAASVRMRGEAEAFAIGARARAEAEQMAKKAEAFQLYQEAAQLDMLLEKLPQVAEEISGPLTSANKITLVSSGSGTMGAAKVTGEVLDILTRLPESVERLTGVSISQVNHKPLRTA
UniProt Q14192: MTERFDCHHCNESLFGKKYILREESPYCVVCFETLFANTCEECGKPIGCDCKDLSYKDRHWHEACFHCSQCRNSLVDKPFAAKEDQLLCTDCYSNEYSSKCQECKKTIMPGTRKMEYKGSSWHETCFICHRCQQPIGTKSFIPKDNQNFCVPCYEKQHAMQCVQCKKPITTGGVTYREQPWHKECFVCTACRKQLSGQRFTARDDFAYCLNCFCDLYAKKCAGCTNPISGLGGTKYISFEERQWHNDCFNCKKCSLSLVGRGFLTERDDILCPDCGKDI
UniProt Q8TB52: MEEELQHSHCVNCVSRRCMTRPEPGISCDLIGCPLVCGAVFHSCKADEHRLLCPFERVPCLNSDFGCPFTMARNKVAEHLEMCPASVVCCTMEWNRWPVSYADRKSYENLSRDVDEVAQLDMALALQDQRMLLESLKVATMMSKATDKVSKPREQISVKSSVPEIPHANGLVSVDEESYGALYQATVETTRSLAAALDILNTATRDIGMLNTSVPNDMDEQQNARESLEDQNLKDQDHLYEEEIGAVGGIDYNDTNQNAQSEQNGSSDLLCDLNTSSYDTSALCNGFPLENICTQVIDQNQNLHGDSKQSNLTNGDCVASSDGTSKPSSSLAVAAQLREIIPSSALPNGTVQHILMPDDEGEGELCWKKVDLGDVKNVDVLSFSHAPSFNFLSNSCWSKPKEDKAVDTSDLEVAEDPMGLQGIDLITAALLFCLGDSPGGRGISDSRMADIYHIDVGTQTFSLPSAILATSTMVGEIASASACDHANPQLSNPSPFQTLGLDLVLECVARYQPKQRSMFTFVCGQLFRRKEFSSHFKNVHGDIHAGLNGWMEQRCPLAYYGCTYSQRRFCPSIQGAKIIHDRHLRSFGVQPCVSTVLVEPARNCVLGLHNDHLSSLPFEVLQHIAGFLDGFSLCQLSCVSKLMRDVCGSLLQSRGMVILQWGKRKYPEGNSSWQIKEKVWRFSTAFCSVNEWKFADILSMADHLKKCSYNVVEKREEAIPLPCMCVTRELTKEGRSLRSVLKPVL
UniProt Q8NB91: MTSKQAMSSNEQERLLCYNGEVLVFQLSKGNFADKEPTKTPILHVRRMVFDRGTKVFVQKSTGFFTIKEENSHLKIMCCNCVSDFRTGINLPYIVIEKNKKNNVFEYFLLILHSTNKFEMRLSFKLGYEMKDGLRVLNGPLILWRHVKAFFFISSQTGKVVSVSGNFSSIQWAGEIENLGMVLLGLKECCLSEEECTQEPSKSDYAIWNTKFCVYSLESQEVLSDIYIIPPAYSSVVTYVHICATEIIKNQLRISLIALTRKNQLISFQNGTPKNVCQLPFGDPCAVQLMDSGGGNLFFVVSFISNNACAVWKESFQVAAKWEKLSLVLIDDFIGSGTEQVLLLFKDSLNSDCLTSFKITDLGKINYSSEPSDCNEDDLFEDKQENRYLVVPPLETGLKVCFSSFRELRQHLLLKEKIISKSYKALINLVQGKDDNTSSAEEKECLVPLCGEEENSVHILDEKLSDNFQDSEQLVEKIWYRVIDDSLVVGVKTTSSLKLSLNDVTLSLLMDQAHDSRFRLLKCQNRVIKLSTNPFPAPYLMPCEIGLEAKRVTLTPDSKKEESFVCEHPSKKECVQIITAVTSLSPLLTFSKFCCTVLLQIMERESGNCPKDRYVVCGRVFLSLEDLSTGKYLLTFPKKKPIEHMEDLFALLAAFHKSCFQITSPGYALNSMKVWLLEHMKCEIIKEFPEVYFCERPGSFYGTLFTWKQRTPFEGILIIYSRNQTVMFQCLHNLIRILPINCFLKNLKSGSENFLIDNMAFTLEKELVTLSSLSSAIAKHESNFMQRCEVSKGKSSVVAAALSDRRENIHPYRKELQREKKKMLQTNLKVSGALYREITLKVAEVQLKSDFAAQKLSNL
UniProt Q52LJ0: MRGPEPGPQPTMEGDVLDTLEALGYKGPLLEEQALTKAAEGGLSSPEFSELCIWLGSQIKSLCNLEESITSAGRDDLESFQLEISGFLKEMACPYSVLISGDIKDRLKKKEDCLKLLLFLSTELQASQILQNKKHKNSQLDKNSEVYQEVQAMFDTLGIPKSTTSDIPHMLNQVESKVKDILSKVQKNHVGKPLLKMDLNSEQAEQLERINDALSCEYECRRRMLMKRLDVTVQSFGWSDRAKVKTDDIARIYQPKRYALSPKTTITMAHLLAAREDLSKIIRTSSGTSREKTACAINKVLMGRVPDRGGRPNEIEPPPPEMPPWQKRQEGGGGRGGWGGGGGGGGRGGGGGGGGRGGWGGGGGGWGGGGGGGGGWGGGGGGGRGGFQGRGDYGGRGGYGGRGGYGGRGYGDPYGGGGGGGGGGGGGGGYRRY
UniProt Q9H4M3: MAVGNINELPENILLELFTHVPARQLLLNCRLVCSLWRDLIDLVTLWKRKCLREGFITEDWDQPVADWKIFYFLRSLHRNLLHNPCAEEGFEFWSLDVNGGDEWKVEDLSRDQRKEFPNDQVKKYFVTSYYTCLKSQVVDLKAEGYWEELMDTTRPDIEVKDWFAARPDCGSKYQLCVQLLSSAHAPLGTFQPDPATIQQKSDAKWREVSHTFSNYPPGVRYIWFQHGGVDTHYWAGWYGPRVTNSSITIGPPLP
UniProt Q02790: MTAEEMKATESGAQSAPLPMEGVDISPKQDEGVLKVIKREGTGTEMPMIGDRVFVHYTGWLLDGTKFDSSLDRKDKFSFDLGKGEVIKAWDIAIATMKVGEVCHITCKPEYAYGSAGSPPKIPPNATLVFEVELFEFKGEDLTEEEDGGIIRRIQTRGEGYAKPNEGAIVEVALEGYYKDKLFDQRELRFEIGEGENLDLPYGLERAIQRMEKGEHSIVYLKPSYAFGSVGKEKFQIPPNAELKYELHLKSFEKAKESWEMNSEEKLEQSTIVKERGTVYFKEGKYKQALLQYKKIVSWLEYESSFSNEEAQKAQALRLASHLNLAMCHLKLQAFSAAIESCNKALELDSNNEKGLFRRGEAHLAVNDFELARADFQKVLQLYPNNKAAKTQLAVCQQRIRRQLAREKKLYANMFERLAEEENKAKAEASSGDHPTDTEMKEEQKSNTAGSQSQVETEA
UniProt Q96ME1: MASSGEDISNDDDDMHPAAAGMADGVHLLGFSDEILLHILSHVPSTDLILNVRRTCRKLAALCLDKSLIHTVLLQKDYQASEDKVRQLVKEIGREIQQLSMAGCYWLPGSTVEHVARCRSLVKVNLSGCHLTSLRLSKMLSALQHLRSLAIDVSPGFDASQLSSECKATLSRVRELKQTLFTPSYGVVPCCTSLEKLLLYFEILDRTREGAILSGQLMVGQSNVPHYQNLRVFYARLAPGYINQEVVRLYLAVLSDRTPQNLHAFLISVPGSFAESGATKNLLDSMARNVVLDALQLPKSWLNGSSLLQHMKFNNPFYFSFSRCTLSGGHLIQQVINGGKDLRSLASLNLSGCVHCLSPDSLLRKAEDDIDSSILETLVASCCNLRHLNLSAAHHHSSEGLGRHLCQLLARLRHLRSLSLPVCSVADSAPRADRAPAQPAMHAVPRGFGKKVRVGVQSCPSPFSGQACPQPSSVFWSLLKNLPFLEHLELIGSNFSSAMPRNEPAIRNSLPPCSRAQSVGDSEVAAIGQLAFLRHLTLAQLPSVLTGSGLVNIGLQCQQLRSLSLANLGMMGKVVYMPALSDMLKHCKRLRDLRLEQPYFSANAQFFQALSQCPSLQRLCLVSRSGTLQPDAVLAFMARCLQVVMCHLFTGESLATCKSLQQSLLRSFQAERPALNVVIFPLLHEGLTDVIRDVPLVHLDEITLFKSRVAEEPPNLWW
UniProt Q96HJ9: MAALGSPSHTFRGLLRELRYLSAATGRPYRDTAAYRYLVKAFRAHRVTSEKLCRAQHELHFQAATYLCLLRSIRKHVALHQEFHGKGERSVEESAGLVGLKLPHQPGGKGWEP
UniProt Q9NVK5: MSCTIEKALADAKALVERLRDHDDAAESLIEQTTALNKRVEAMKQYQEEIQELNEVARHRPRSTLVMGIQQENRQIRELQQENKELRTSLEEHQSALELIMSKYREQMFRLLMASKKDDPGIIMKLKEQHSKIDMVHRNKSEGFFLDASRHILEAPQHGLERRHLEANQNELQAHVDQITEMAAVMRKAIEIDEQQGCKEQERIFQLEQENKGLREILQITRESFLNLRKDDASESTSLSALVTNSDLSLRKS
UniProt Q9UKT4: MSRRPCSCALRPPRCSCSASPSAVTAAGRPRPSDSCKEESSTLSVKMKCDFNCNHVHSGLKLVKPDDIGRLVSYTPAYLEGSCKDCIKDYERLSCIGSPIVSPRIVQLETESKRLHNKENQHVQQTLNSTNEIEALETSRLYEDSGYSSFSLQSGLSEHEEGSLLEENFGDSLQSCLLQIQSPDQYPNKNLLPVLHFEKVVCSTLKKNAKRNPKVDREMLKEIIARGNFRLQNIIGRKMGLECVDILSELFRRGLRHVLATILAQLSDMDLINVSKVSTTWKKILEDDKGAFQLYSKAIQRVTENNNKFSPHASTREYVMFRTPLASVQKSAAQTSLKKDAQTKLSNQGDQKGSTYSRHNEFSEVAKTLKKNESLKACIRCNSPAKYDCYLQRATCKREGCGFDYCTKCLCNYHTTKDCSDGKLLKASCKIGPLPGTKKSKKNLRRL
UniProt P0C2W1: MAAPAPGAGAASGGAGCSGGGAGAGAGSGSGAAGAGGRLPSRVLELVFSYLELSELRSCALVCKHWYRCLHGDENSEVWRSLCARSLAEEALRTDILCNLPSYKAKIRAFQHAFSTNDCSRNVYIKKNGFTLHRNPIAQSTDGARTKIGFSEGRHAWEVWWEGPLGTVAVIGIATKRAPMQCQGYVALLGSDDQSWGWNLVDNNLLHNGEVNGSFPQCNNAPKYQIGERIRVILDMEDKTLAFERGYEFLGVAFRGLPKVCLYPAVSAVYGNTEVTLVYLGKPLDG
UniProt Q9UHY8: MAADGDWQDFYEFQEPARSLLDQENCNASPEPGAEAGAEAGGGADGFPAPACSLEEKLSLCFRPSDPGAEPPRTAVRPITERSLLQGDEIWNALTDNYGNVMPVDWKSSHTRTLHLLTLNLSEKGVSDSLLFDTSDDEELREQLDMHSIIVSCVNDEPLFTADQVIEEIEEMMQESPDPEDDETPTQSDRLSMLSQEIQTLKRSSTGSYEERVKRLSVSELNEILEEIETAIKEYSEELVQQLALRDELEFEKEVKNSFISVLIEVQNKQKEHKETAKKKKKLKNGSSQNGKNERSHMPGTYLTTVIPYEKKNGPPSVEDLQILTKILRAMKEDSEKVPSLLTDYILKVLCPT
UniProt Q96CP2: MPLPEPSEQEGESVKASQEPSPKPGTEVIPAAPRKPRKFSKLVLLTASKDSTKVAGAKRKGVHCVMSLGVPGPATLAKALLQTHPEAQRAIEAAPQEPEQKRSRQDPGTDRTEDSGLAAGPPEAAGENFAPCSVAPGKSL

The other results are listed elsewhere or left out.

Common to all, as to assay: log2 fold change, soluble protein after heating vs DMSO (PISA); higher = thermal stabilisation; K562 lysate, 10 uM; active = over 0.2 and 3.5 SD of the protein, either way, in both replicates (recomputed)
Compound in assay [1]: NCC(=O)Nc1ccc(-n2nc(C(F)(F)F)cc2-c2ccc3c(ccc4ccccc43)c2)cc1
An outline of the steps: (§1)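 Thermal stability, expressed as log-two fold change relative to solvent controls, is given from duplicates. Crude K562 extract in PBS pH 7.4 with 1 mM MgCl2, at 1 mg/mL protein, was treated with 10 μM compound for 30 min and heated in aliquots for 3 min across 48°C-58°C. After pooling, adjustment to 0.5% NP-40 at 4°C and centrifugation at 21,000xg for 90 min, supernatant protein was measured by TMTpro 16plex LC-MS/MS with channel sums equalised.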

Compound in a further assay: O=C(CCCCCCC(=O)Nc1ccccc1)NO [vorinostat]
An outline of the steps:
as §1

Compound in the next assay: O=C(O)c1ccc2c(c1)nc(Nc1cccc(Cl)c1)c1ccncc12 [silmitasertib]
An outline of the steps: as §1

Compound in assay [2]: O=C1NC(=O)C(c2cnc3ccccn23)=C1c1cn2c3c(cc(F)cc13)CN(C(=O)N1CCCCC1)CC2
The gist of the method: as §1

Compound in the next assay: c1cn2cc(-c3ccc4cn[nH]c4c3)nc(Nc3ccc(N4CCOCC4)cc3)c2n1 [entospletinib]
The gist of the method: as §1

Consider FAM86B2 (UniProt P0C5J1), for which, in assay [1], the log2 fold change is inactive: -0.248.

As to FERMT2 isoform 3 (UniProt Q96AC1), the log2 fold change in assay [1] is inactive: -0.047; in the assay with vorinostat, inactive: 0.047; with silmitasertib, inactive: -0.091; in assay [2] it was inactive: -0.002; in the assay with entospletinib, inactive: -0.009.

As for FLOT1 (UniProt O75955), the log2 fold change is inactive: 0.01 in assay [1]; inactive: 0.148 with vorinostat; inactive: -0.014 with silmitasertib; inactive: 0.002 in assay [2]; inactive: 0.031 with entospletinib.

Regarding FHL2 (UniProt Q14192), the log2 fold change in assay [1] is inactive: -0.073; with vorinostat, inactive: -0.078; with silmitasertib it was inactive: 0.04; in assay [2], inactive: -0.002; with entospletinib, inactive: -0.007.

With FLNA (UniProt H0Y5C6), the figures for the log2 fold change (in assay [1]; in the assay with vorinostat; with silmitasertib) were inactive: 0.14, inactive: 0.123 and inactive: -0.039, respectively.

Turning to FBXL8 (UniProt Q96CD0), the log2 fold change in assay [1] is inactive: 0.001; in the assay with vorinostat, inactive: -0.078; with silmitasertib it was inactive: 0.037; in assay [2] it was inactive: 0.045; with entospletinib, inactive: 0.068.

As to FH (UniProt P07954), the log2 fold change in assay [1] is inactive: 0.03; in the assay with vorinostat, inactive: 0.032; with silmitasertib it was inactive: -0.01; in assay [2], inactive: -0.011; with entospletinib, inactive: 0.016.

With FCHO2 (UniProt Q0JRZ9), the log2 fold change is inactive: -0.037 in assay [1]; inactive: -0.028 in the assay with vorinostat; inactive: -0.011 in the assay with silmitasertib; inactive: 0.018 in assay [2]; inactive: -0.027 in the assay with entospletinib.

For FBXO30 (UniProt Q8TB52), the log2 fold change in assay [1] is inactive: -0.01; with vorinostat, active: -0.316; in the assay with silmitasertib, inactive: 0.042; in assay [2], inactive: -0.019; with entospletinib it was inactive: 0.013.

Consider FIBP (UniProt O43427), for which the log2 fold change was inactive: -0.049 in assay [1]; inactive: -0.006 in the assay with vorinostat; inactive: 0.119 with silmitasertib; inactive: -0.02 in assay [2]; inactive: -0.049 with entospletinib.

With FEM1B (UniProt Q9UK73), the log2 fold change in assay [1] is inactive: 0.035; with vorinostat, inactive: 0.028; with silmitasertib, inactive: -0.026; in assay [2], inactive: -0.054; with entospletinib, inactive: -0.074.

On to FARSA (UniProt Q9Y285), for which the log2 fold change in assay [1] is inactive: -0.025; in the assay with vorinostat, active: 0.381; in the assay with silmitasertib, inactive: 0.007; in assay [2], inactive: -0.006; in the assay with entospletinib, inactive: 0.003.

FANCB (UniProt Q8NB91): the log2 fold change in assay [1] was inactive: 0.023; with vorinostat it was inactive: -0.153; in the assay with silmitasertib, inactive: 0.091; in assay [2], inactive: 0.055; with entospletinib, inactive: -0.016.

With FAM98B (UniProt Q52LJ0), the log2 fold change in assay [1] was inactive: -0.018; in the assay with vorinostat, inactive: -0.088; in the assay with silmitasertib it was inactive: 0.011; in assay [2], inactive: -0.017; with entospletinib, inactive: 0.031.

Take FBXO44 isoform 2 (UniProt Q9H4M3): the results for the log2 fold change (in assay [1]; with vorinostat; in the assay with silmitasertib) were inactive: -0.075, inactive: -0.213 and inactive: 0.188, respectively.

On to FKBP4 (UniProt Q02790), for which the log2 fold change in assay [1] is inactive: -0.002; with vorinostat, inactive: 0.035; with silmitasertib, inactive: -0.012; in assay [2], inactive: -0.016; with entospletinib, inactive: 0.004.

FLNC (UniProt Q14315): the log2 fold change in assay [1] is inactive: 0.009; with vorinostat, inactive: 0.057; with silmitasertib, inactive: -0.021; in assay [2], inactive: 0.005; in the assay with entospletinib it was inactive: 0.026.

As to FNTB (UniProt P49356), the log2 fold change in assay [1] was inactive: 0.03; with vorinostat, inactive: 0.03; in the assay with silmitasertib, inactive: -0.018; in assay [2] it was inactive: -0.032; in the assay with entospletinib, inactive: -0.048.

With FBXL18 isoform 4 (UniProt Q96ME1), the log2 fold change in assay [1] is inactive: 0.047; in the assay with vorinostat, inactive: -0.066; with silmitasertib it was inactive: 0.052; in assay [2] it was inactive: -0.001; with entospletinib it was inactive: 0.002.

As to FMC1 (UniProt Q96HJ9), the log2 fold change was inactive: 0.006 in assay [1]; inactive: 0.081 with vorinostat; inactive: 0.081 with silmitasertib; inactive: 0.023 in assay [2]; inactive: -0.01 in the assay with entospletinib.

Regarding FGFR1OP2 (UniProt Q9NVK5), the log2 fold change is inactive: 0.066 in assay [1]; inactive: -0.015 in the assay with vorinostat; inactive: 0.041 with silmitasertib; inactive: -0.021 in assay [2]; inactive: 0.015 with entospletinib.

As for FBXO6 (UniProt Q9NRD1), the log2 fold change in assay [1] was inactive: -0.022; with vorinostat it was inactive: 0.028; in the assay with silmitasertib, inactive: -0.011; in assay [2] it was inactive: 0.019; with entospletinib, inactive: -0.001.

For the target FBXO5 (UniProt Q9UKT4), the log2 fold change in assay [1] was inactive: 0.001; in the assay with vorinostat, inactive: -0.255; with silmitasertib, inactive: -0.03; in assay [2] it was inactive: -0.032; with entospletinib, inactive: 0.024.

In the case of FBXO45 (UniProt P0C2W1), the log2 fold change in assay [1] was inactive: -0.013; with vorinostat, active: -0.367; with silmitasertib, inactive: 0.127; in assay [2], inactive: 0.021; in the assay with entospletinib it was inactive: -0.05.

Take FEZ2 isoform 2 (UniProt Q9UHY8): the log2 fold change was inactive: 0.027 in assay [1]; inactive: -0.003 in the assay with vorinostat; inactive: 0.048 with silmitasertib; inactive: 0.027 in assay [2]; inactive: 0.011 with entospletinib.

On to FLYWCH2 (UniProt Q96CP2), for which the log2 fold change was inactive: 0.022 in assay [1]; inactive: 0.068 in the assay with vorinostat; inactive: -0.064 with silmitasertib; inactive: 0 in assay [2]; inactive: -0.03 with entospletinib.

As to FHOD1 (UniProt Q9Y613), the log2 fold change in assay [1] is inactive: -0.018; in the assay with vorinostat it was active: -0.47; with silmitasertib, inactive: 0.008; in assay [2], inactive: -0.02; in the assay with entospletinib it was inactive: -0.002.

FN3KRP (UniProt Q9HA64): the log2 fold change is inactive: 0.005 in assay [1]; inactive: 0.153 with vorinostat; inactive: -0.045 in the assay with silmitasertib; inactive: -0.006 in assay [2]; inactive: 0.011 in the assay with entospletinib.
